In article PMC10018359, “Allosteric effects of E. coli SSB and RecR proteins on RecO protein binding to DNA” (Nucleic Acids Research, 2023):
The exact form of at least one protein or probe is not confirmed. Weaker means in comparison with the reference protein, sequence or condition of that experiment. Where a protein sequence is shown, tags need not be part of it.

Molecular target: T1, RecO (Escherichia coli) (UniProt P0A7H3)
T1 sequence (looked up, limits assumed): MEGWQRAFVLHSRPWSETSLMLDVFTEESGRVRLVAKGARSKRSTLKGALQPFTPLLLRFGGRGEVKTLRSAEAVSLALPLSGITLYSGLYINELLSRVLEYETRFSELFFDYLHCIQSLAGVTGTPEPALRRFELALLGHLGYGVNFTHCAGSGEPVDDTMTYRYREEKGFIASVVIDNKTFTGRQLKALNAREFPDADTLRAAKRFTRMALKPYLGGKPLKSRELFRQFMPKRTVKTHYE
Experiment: AUC sedimentation velocity
Conditions: no SSB-Ct, Buffer BTP: 20 mM Bis-Tris propane pH 8.0, 50 mM NaCl, 25% (v/v) glycerol, 1 mM TCEP, 25 C, recombinant protein, protein details: His-tag cleaved with TEV (pMCSG7), label: 3'-Cy3, single-stranded DNA

## TTTTTTTTTTTTTTT [Cy3-(dT)15]
0.5 to 0.6 S
  binding result: binds more weakly

## TTTTTTTTTTTTTTTTTTTTTTTTTTTTTTTTTTT [Cy3-(dT)35]
0.7 to 0.7 S
  binding result: binds more weakly

## TTTTTTTTTTTTTTTTTTTTTTTTTTTTTTTTTTTTTTTTTTTTTTTTTTTTTTTTTTTTTTTTTTTT [Cy3-(dT)68]
0.9 to 1.0 S
  binding result: binds more weakly

## TTTTTTTTTTTTTTTTTTTTTTTTTTTTTTTTTTTTTTTTTTTTTTTTTTTTTTTTTTTTTTTTTTTTTTTTTTTTTTTTTTTTTTTTTTTTTTTTTTTTTTTTTTTTTTTTTTTTTTTTTTTTTTTTTTTTTTTTTTTT [Cy3-(dT)140]
1.2 to 1.2 S
  binding result: binds more weakly
